Test results published in PubChem BioAssay.
The list shows a part of the results. Shown are side measurements of this screen, not its main read-out; they come without a call. For part of these data: Compounds called inactive in the main read-out are mostly missing here.

Key:
[1] = PubChem AID 1586; details: yeast two-hybrid polyglutamine protein interaction, reporter readout; measured here: averaged growth delta OD
[2] = selective SMN2 exon splicing luciferase activators – cell-based, SMN2/SMN1 luciferase reporters (AID 1598); details: SMN2 vs SMN1 luciferase splicing reporter cells, at 10 µM; SMN1 luciferase ratio: measured here: SMN1 luciferase reporter average; SMN2 luciferase ratio: measured here: SMN2 luciferase reporter average, stronger effect = higher value
[3] = rescue of PC12 cells from polyQ htt toxicity – LDH release (AID 1610); details: PC12 mutant huntingtin toxicity, final LDH at 4 uM, stronger effect = lower value

Row | Structure (SMILES) | signal change (36 h minus 0 h) [1] | SMN1 luciferase ratio [2] | SMN2 luciferase ratio [2] | normalised LDH release [3]
1 | CC1(C)O[C@@H]2CC3C4C[C@H](F)C5=CC(=O)C=CC5(C)C4C(O)CC3(C)[C@]2(C(=O)CO)O1 (stereo partly drawn) | 0.166 | 0.88 | 0.83 | 
2 | CC[C@H]1OC(=O)[C@H](C)[C@@H](O[C@H]2C[C@@](C)(OC)[C@@H](O)[C@H](C)O2)[C@H](C)[C@@H](O[C@@H]2O[C@H](C)C[C@H](N(C)C)[C@H]2O)[C@](C)(O)C[C@@H](C)CN(C)[C@H](C)[C@@H](O)[C@]1(C)O | 0.131 | 0.87 | 0.88 | 
3 | O=C(O)c1cc2cc(Cc3cccnc3)ccc2o1 | 0.206 | 0.91 | 1.05 | 
4 | CO/N=C(/C(=O)N[C@@H]1C(=O)N2C(C(=O)O)=C(COC(C)=O)CS[C@H]12)c1csc(N)n1 | 0.0992 | 0.92 | 0.88 | 
5 | Oc1c(Cl)cc(Cl)cc1Sc1cc(Cl)cc(Cl)c1O | 0.0333 | 0.97 | 0.84 | 
6 | OCC(S)CS (stereo not drawn) | 0.201 | 0.94 | 1.04 | 
7 | CNC(=O)Oc1ccc2c(c1)[C@]1(C)CCN(C)[C@@H]1N2C | 0.0318 | 0.84 | 0.88 | 
8 | O=NN(CCCl)C(=O)NCCCl | 0.178 | 0.9 | 0.87 | 
9 | Nc1c2c(nc3ccccc13)CCCC2 | 0.144 | 0.95 | 0.98 | 
10 | O=C(Nc1ccc([N+](=O)[O-])cc1Cl)c1cc(Cl)ccc1O | 0.216 | 0.5 | 0.45 | 
11 | NC(N)=NS(=O)(=O)c1ccc(N)cc1 | 0.179 | 0.96 | 0.81 | 1.17
12 | CC(C)NNC(=O)c1ccncc1 | 0.188 | 0.91 | 0.97 | 0.576
13 | O=C1c2ccccc2C(=O)C1c1ccccc1 | 0.0583 | 0.99 | 1.01 | 0.651
14 | O=C1OC(c2ccc(O)cc2)(c2ccc(O)cc2)c2ccccc21 | 0.124 | 0.98 | 0.89 | 0.834
15 | O=c1[nH]cc(F)c(=O)[nH]1 | 0.0683 | 0.51 | 0.58 | 0.884
16 | CC[C@H]1CN2CCc3cc(OC)c(OC)cc3C2C[C@@H]1CC1NCCc2cc(OC)c(OC)cc21 (stereo partly drawn) | 0.19 | 0.29 | 0.63 | 0.774
17 | O=C1NS(=O)(=O)c2ccccc21 | 0.147 | 0.92 | 0.81 | 0.973
18 | Clc1cccc(Cl)c1NC1=NCCN1 | 0.0743 | 0.94 | 0.93 | 0.697
19 | CN(C)CCCN1c2ccccc2Sc2ccc(Cl)cc21 | 0.0915 | 0.91 | 0.8 | 0.804
20 | CCC(=O)OC1CCC2C3CCc4cc(O)ccc4C3CCC12C (stereo not drawn) | 0.105 | 0.82 | 0.84 | 1.41
21 | CC1CCC(NC(=O)N(CCCl)N=O)CC1 (stereo not drawn) | 0.246 | 0.94 | 0.97 | 0.677
22 | O=C(OCC(O)CO)c1ccccc1Nc1ccnc2cc(Cl)ccc12 (stereo not drawn) | 0.148 | 0.9 | 0.97 | 1.01
23 | Cc1cn([C@H]2C[C@H](N=[N+]=[N-])[C@@H](CO)O2)c(=O)[nH]c1=O | 0.206 | 0.83 | 0.78 | 1.62
24 | Cc1ccccc1N1C(=O)c2cc(S(N)(=O)=O)c(Cl)cc2NC1C (stereo not drawn) | 0.207 | 0.85 | 0.88 | 0.951
25 | Cc1ncc([N+](=O)[O-])n1CCO | 0.117 | 0.91 | 0.83 | 0.951
26 | CC(C)C[C@@H](NC(=O)OCC1c2ccccc2-c2ccccc21)C(=O)O | 0.438 | 1.32 | 1.23 | 1.1

Row | Structure (SMILES) | signal change (36 h minus 0 h) [1] | SMN1 luciferase ratio [2] | SMN2 luciferase ratio [2] | normalised LDH release [3]
27 | Oc1cc(O)c2c(c1)O[C@H](c1ccc(O)c(O)c1)[C@@H](O)C2 | 0.254 | 0.93 | 0.82 | 0.956
28 | COc1ccc2cc(CCC(C)=O)ccc2c1 | 0.13 | 1.39 | 1.36 | 0.768
29 | CN(C)CCOC(c1ccccc1)c1ccccc1 (tested in a mixture with another compound) | 0.174 | 0.87 | 0.9 | 0.865
30 | CCN1CCN(C(=O)NC(C(=O)NC2C(=O)N3C(C(=O)O)=C(CSc4nnnn4C)CSC23)c2ccc(O)cc2)C(=O)C1=O (stereo not drawn) | 0.155 | 0.87 | 0.94 | 0.638
31 | OC(Cn1cncn1)(Cn1cncn1)c1ccc(F)cc1F | 0.282 | 0.96 | 0.96 | 0.907
32 | C[C@]12CCC3c4ccc(O)cc4CCC3C1CC[C@@H]2OC(=O)CCC1CCCC1 (stereo partly drawn) | 0.0312 | 0.93 | 0.94 | 0.972
33 | COC(=O)/C(=C1\OC(=O)C(c2ccccc2)C1=O)c1ccccc1 (stereo not drawn) | 0.0674 | 1.46 | 1.39 | 1.01
34 | COc1ccc(CCC(=O)c2c(O)cc(O[C@@H]3O[C@H](CO)C(O)[C@H](O)C3O[C@@H]3O[C@@H](C)[C@H](O)[C@@H](O)[C@H]3O)cc2O)cc1O (stereo partly drawn) | 0.192 | 0.85 | 0.91 | 0.711
35 | CN(C)CC/C=C1/c2ccccc2COc2ccccc21 | 0.141 | 0.83 | 0.79 | 0.912
36 | Nc1ncnc2c1ncn2[C@@H]1O[C@H](CO)[C@@H](O)[C@@H]1O | 0.0898 | 0.81 | 0.8 | 1.1
37 | CNC[C@H](O)c1cccc(O)c1 | 0.16 | 0.94 | 0.82 | 0.777
38 | O=C(O)CN(CC(=O)O)Cc1cc2c(-c3ccccc3C(=O)O)c3cc(CN(CC(=O)O)CC(=O)O)c(=O)cc-3oc2cc1O | 0.248 | 1.01 | 0.94 | 0.99
39 | CNCCC=C1c2ccccc2CCc2ccccc21 | 0.0956 | 0.88 | 0.68 | 0.964
40 | CN(C(=O)CN(CCO)CC(=O)N(C)C(C)(C)Cc1ccccc1)C(C)(C)Cc1ccccc1 | 0.186 | 0.84 | 0.8 | 0.87
41 | COC(=O)C1=C(C)NC(C)=C(C(=O)OC)C1c1ccccc1[N+](=O)[O-] | 0.0253 | 0.93 | 0.93 | 0.869
42 | CC(=O)OCC(=O)[C@@]1(O)CCC2C3CCC4=CC(=O)CC[C@]4(C)C3C(=O)C[C@@]21C (stereo partly drawn) | 0.113 | 0.95 | 0.83 | 1.13
43 | CC(C)NCC(O)COc1cccc2[nH]ccc12 (stereo not drawn) | 0.121 | 0.9 | 0.88 | 0.981
44 | CC(CN(C)C)CN1c2ccccc2Sc2ccccc21 (stereo not drawn) | 0.161 | 0.86 | 0.84 | 0.637
45 | CSCCC(N)C(=O)NC(CC(C)C)C(=O)NC(Cc1ccccc1)C(=O)O (stereo not drawn) | 0.101 | 0.87 | 0.94 | 0.676
46 | NC[C@@H]1O[C@H](O[C@H]2[C@@H](O)[C@H](O[C@@H]3[C@@H](O)[C@H](N)C[C@H](N)[C@H]3O[C@@H]3O[C@H](CO)[C@@H](O)C[C@H]3N)O[C@@H]2CO)[C@H](N)[C@@H](O)[C@@H]1O[C@H]1O[C@H](CO)[C@@H](O)[C@H](O)[C@@H]1O | 0.243 | 0.89 | 1.02 | 0.903
47 | O=C(CCCN1CCC(O)(c2ccc(Cl)cc2)CC1)c1ccc(F)cc1 | 0.11 | 0.88 | 0.88 | 0.839
48 | COc1cc(NS(=O)(=O)c2ccc(N)cc2)nc(OC)n1 | 0.155 | 0.76 | 0.93 | 0.894
49 | CC(=O)Nc1ccc(O)cc1 | 0.0316 | 0.99 | 0.99 | 0.815
50 | C1N2CN3CN1CN(C2)C3 | 0.209 | 1.02 | 0.87 | 1.12
51 | CCN1CCN(C(=O)NC(C(=O)N[C@@H]2C(=O)N3[C@@H]2SC(C)(C)[C@@H]3C(=O)O)c2ccccc2)C(=O)C1=O (stereo partly drawn) | -0.00855 | 0.91 | 0.91 | 0.587
52 | CCCN(CCC)S(=O)(=O)c1ccc(C(=O)O)cc1 | 0.147 | 0.89 | 0.99 | 0.9

Four of the compounds above, as tab-separated lines:
Row	Structure (SMILES)	signal change (36 h minus 0 h) [1]	SMN1 luciferase ratio [2]	SMN2 luciferase ratio [2]	normalised LDH release [3]
28	COc1ccc2cc(CCC(C)=O)ccc2c1	0.13	1.39	1.36	0.768
29	CN(C)CCOC(c1ccccc1)c1ccccc1 (tested in a mixture with another compound)	0.174	0.87	0.9	0.865
30	CCN1CCN(C(=O)NC(C(=O)NC2C(=O)N3C(C(=O)O)=C(CSc4nnnn4C)CSC23)c2ccc(O)cc2)C(=O)C1=O (stereo not drawn)	0.155	0.87	0.94	0.638
31	OC(Cn1cncn1)(Cn1cncn1)c1ccc(F)cc1F	0.282	0.96	0.96	0.907
